{
  "source": "patent US20240226074A1",
  "about": "“CELL-OF-ORIGIN TARGETED DRUG REPURPOSING FOR TRIPLE-NEGATIVE AND INFLAMMATORY BREAST CARCINOMA WITH HDAC AND HSP90 INHIBITORS COMBINED WITH NICLOSAMIDE” (priority 2022, published 2024)",
  "tested_on": "Cal148",
  "assay": "WST cell proliferation assay, Cal148 cells",
  "type": "cell-based",
  "settings": "50 nM, 7 days",
  "note": "For at least one compound, name, drawing or mass did not settle the structure.",
  "data": [
    {"molecule": "C=CCNC1=C2C[C@@H](C)C[C@H](OC)[C@H](O)[C@@H](C)/C=C(\\C)[C@H](OC(N)=O)[C@@H](OC)/C=C\\C=C(/C)C(=O)NC(=CC1=O)C2=O", "note": "[Tanespimycin]", "values": [
      {"measurement": "sensitivity of cell line (FIG. 2)", "value": "exceptional sensitivity"}
    ]}
  ]
}
